The subject of the assay is Alzheimer's disease-related / dementia-related symptoms. The experiment in a line: Dietary supplementation of dementia subjects (case accounts by caregiver and physician). It counts as in vivo, human. The following applies: Subject #2, dementia-type disease; initially placed on the prescription drug.

These results are taken from patent publication US20040005311A1, “Dietary supplement compositions” (priority 2003, published 2004).

For `COc1cc2c(cc1OC)C(=O)C(CC1CCN(Cc3ccccc3)CC1)C2` (stereo not shown) [Aricept], the confusion result was “observed to become more confused”.
